Publication doi:10.1101/2021.11.11.468194
No constants are given. Whether binding was seen depends on the method and setting. In cells and extracts the contact can be indirect. Some results given as binding are weak or reduced against the parent protein; the word gives no strength. Sequences can lack the tags named with a protein. Blank lines part the entries; values can stand above or below the binder they belong to.

What was measured:
[1] = target: T1, glutathione S-transferase (GST)-tagged Appl1-N (mouse) (UniProt Q8K3H0); experiment: pull-down
T1 sequence: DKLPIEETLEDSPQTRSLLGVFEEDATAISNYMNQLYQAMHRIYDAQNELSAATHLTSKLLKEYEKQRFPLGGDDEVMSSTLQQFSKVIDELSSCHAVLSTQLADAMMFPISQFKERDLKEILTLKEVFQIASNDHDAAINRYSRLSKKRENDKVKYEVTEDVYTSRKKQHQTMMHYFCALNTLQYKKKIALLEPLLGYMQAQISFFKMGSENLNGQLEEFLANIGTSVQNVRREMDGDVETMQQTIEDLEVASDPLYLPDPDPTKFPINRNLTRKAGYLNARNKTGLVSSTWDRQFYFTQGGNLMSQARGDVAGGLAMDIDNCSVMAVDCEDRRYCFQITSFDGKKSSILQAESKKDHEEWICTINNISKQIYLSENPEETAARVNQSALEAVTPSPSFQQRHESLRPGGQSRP

[2] = target: T7-tagged TBC1D18 (UniProt Q5R372); experiment: co-IP

binding [1]: binds
B1: Rab5 (active, GTP-bound) (protein, UniProt P18066 1-215)
chain: MANRGATRPNGPNTGNKICQFKLVLLGESAVGKSSLVLRFVKGQFHEFQESTIGAAFLTQTVCLDDTTVKFEIWDTAGQERYHSLAPMYYRGAQAAIVVYDITNEESFARAKNWVKELQRQASPNIVIALSGNKADLANKRAVDFQEAQSYADDNSLLFMETSAKTSMNVNEIFMAIAKKLPKNEPQNPGANSARGRGVDLTEPTQPTRSQCCSN

binding [2]: binds
B2: FLAG-tagged Mon1a (protein, UniProt Q6PDG8 1-556)
chain: MAADMQRKRSSECPEGTLAPSNGQSVERAESPTPGLTQGTEPGAGQEGAMFVHTRSYEDLTELEDREASGDSPKECVGSPPPLATDMRQISQDFSELSTQLTGVARDLQEEMLPGSSEDWPEPQGAAGRGAATEPSQEGSTEGEEEDATEAWRLHQKHVFVLSEAGKPVYSRYGSEEALSSTMGVMVALVSFLEADKNAIRSIHADGYKVVFVRRSPLVLVAVARTRQSAQELAQELLYIYYQILSLLTGAQLSHIFQQKQNYDLRRLLSGSERITDNLLQLMARDPSFLMGAARCLPLAAAVRDTVSASLQQARARSLVFSILLAHNQLVALVRRKDQFLHPIDLHLLFNLISSSSSFREGEAWTPVCLPKFNAAGFFHAHISYLEPDTDLCLLLISTDREDFFAVSDCRRRFQERLRKRGTHLALREALRTPYYSVAQVGIPDLRHFLYKSKSSGLFTSPEIEAPYSSEEEQERLLGLYQYLHSRAHNASRPLKTIYYTGPNENLLAWVTGAFELYMCYSPLGTKASAVSAIHKLMRWIRKEEDRLFILTPLTY

binding [2]: binds
B3: FLAG-tagged Mon1b (protein, UniProt Q8BMQ8 1-553)
chain: MEAGGDNAVPAPGGVEDLVDTQFPREEAGDSERVHASTLDPGDGDPEDTGSKDQPSSLLSPLPQTEAASSTCEHWETAAASDSSPPGEPESNSEGQGEDPDDGGDPSDEDWRSQRKHVFVLSEAGKPIYSRYGSVEALSATMGVMTALVSFVQSAGDAIRAIYAEDHKLVFLQQGPLLLVAVSRTPQSAAQLRGELLAVHAQIVSTLTRASVARIFAHKQNYDLRRLLAGSERTLDRLLDSVEQDPGALLLGAVRCVPLARPLRDALGTLLRRCTAPGLALSVLAVGGRLITVAQERNVLAECRLDPADLQLLLDWVGAPAFAAGEAWAPVCLPRFNPDGFFYAYVARLDSMPVCLLLLGTNREAFHAMAACRRLVEDGMHNLGALRTLGEAANFSNGPAASAPAYSVQAVGAPGLRHFLYKPLDIPEQHRQLPQFTSPELEAPYSREEERQRLSDLYHRLHARLHSTSRPLRLIYHVAEKETLLAWVTSKFELYTCLSPLVTKAGAILVVTKLLRWVRKEEDRLFIRYPPKYSTPPSTSADQAPNNGLFTGL
